The values below come from patent US7223850.

The chains behind the UniProt entries cited, without tags or fusion partners. Where a name states a change or a piece, a line headed by the entry shows the natural chain unless it says otherwise.
UniProt Q13546: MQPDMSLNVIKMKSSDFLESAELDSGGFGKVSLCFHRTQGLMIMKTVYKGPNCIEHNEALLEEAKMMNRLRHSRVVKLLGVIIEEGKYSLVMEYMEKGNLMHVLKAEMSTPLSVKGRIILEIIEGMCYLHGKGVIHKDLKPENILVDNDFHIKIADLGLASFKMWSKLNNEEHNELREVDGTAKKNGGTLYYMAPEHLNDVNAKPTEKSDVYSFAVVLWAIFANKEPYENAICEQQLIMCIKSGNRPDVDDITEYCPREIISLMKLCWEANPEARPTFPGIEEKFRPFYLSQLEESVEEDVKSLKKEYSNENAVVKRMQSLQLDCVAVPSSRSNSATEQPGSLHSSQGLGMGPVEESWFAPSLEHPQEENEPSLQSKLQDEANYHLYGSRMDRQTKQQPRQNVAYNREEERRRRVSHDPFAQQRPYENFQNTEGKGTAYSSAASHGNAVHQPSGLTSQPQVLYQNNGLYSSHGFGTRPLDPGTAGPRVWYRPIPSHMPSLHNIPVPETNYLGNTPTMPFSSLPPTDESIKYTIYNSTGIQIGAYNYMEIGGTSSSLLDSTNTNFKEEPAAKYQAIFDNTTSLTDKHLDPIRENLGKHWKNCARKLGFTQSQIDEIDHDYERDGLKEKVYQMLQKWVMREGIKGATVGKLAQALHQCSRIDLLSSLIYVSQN
UniProt Q9Y572: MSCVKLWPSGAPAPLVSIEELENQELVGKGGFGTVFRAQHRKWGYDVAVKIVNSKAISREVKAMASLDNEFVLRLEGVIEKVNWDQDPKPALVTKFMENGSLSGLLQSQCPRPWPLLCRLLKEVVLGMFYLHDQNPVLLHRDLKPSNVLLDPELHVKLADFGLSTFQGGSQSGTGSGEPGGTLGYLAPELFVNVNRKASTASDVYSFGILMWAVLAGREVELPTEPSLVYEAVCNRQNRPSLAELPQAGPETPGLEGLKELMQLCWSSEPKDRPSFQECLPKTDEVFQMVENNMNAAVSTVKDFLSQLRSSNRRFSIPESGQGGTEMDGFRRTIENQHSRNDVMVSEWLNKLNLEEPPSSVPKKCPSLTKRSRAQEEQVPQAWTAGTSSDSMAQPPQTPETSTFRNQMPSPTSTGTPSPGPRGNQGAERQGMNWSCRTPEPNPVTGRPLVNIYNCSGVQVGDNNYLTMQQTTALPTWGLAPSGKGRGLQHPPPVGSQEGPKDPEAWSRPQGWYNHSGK

In the experiment the target is HA-tagged RIP (UniProt Q13546). As to the kind of experiment: co-immunoprecipitation, HA-RIP and Flag-Apop3 mutant co-transfected in Phoenix-A (293 T) cells, anti-Flag immunoblot.

These are yes or no findings as the source states them, for the method shown. In cells and extracts the contact can be indirect. Some results given as binding are weak or reduced against the parent protein; the word gives no strength.

For “Flag-tagged Apop3(82-518) (from UniProt Q9Y572 82-518) (enzyme)”, the binding result is recorded as “binds”.
